Results deposited as PubChem BioAssay AID504764 (Drosophila RNAi Screening Center, 2011).

Aim: 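Knock-downs that raise or lower a Notch target reporter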 (primary screen)
System: Drosophila Kc167 cells
Reagents: long dsRNA against Drosophila genes
Duration: about 5 days (4 days dsRNA, then 24 h after transfection)
Treatment: transfection of constitutively active membrane-tethered Notch lacking the extracellular domain, read 24 h later
Detection: 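Light from a Notch-responsive E(spl)m3 luciferase reporter under active Notch, with control-promoter and no-Notch reporter wells to normalise; raw counts from paired wells a and b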
Direction: induced reporter light, run 1, well a and induced reporter light, run 1, well b: higher = more light from the Notch target reporter with active Notch; control promoter light, run 1, well a and control promoter light, run 1, well b: higher = more light from the viral control promoter (cell number, transfection, viability); uninduced reporter light, run 1, well a: higher = more light from the Notch target reporter without active Notch
Active means: 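Wells with low control signal or poorly matching duplicates excluded; duplicates averaged; per source plate, z beyond ±2 for induced/control log2 ratio or beyond ±1.8 for induced/uninduced marks a hit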
Meaning of the calls: active = modifier hit (raised or lowered Notch signal); inactive = not a hit
The deposit covers about 22,000 reagents; shown is a random part of those with a known target gene and a result. Of all reagents, 403 (1.9%) got an active call. 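Unnormalised raw counts per well; ratio z-scores behind the hit calls and whether each hit raises or lowers signal are not deposited.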 Unmarked entries are inactive. Not given: the amount of reagent.

target | amplicon | induced reporter light, run 1, well a | induced reporter light, run 1, well b | control promoter light, run 1, well a | control promoter light, run 1, well b | uninduced reporter light, run 1, well a
Josd (Josephin domain containing) | DRSC18323 | 1.28e5 | 1.44e5 | 2.18e5 | 2.22e5 | 10338
CG5346 | DRSC15778 | 2.17e5 | 2.04e5 | 2.24e5 | 2.26e5 | 16425
Bro | DRSC08149 | 1.29e5 | 1.10e5 | 2.25e5 | 1.38e5 | 6220
CG10962 | DRSC18421 | 1.79e5 | 1.67e5 | 2.03e5 | 1.87e5 | 12885
CG4301 | DRSC19886 | 49875 | 36815 | 47485 | 47450 | 3670
CG6340 | DRSC19987 | 93795 | 95215 | 1.28e5 | 1.06e5 | 9605
CG10000 | DRSC14170 | 1.68e5 | 1.57e5 | 1.92e5 | 1.78e5 | 12945
Ca-alpha1D (Ca[2+]-channel protein alpha[[1]] subunit D) | DRSC03284 | 1.66e5 | 2.19e5 | 1.36e5 | 1.55e5 | 12495
Su(var)2-HP2 | DRSC06204 | 1.59e5 | 1.54e5 | 1.51e5 | 1.77e5 | 12178
CG5793 | DRSC15874 | 1.79e5 | 1.56e5 | 1.87e5 | 1.91e5 | 12955
ssp7 (short spindle 7) | DRSC18878 | 1.19e5 | 88070 | 1.31e5 | 1.22e5 | 6965
step (steppke) | DRSC03694 | 49635 | 42240 | 50705 | 55030 | 3420
step (steppke) | DRSC03699 | 77820 | 61665 | 58595 | 75420 | 3985
Pu (Punch) | DRSC04645 | 1.71e5 | 1.65e5 | 1.40e5 | 1.34e5 | 10165
Sas10 (Something about silencing 10) | DRSC18355 | 1.72e5 | 2.20e5 | 4.20e5 | 3.15e5 | 12760
HINT1 (histidine triad nucleotide binding protein 1) | DRSC00548 | 1.49e5 | 92160 | 83540 | 68270 | 12225
Spred (Sprouty-related protein with EVH-1 domain) | DRSC05976 | 81620 | 1.01e5 | 88560 | 88635 | 6965
CG8399 | DRSC07163 | 67090 (active) | 72980 | 79990 | 1.04e5 | 5300
CG14315 | DRSC14794 | 1.81e5 | 1.81e5 | 1.91e5 | 1.85e5 | 12780
CG14262 | DRSC14757 | 1.40e5 | 1.37e5 | 2.03e5 | 1.71e5 | 10180

Laid out differently: results already given
{"target":"CG4301","amplicon":"DRSC19886","induced reporter light, run 1, well a":49875,"induced reporter light, run 1, well b":36815,"control promoter light, run 1, well a":47485,"control promoter light, run 1, well b":47450,"uninduced reporter light, run 1, well a":3670}
{"target":"CG6340","amplicon":"DRSC19987","induced reporter light, run 1, well a":93795,"induced reporter light, run 1, well b":95215,"control promoter light, run 1, well a":1.28e5,"control promoter light, run 1, well b":1.06e5,"uninduced reporter light, run 1, well a":9605}
{"target":"CG10000","amplicon":"DRSC14170","induced reporter light, run 1, well a":1.68e5,"induced reporter light, run 1, well b":1.57e5,"control promoter light, run 1, well a":1.92e5,"control promoter light, run 1, well b":1.78e5,"uninduced reporter light, run 1, well a":12945}
